Paper PMC11706607

Amino acid sequences for entries named in this document (tags omitted). A change or cut given only in a name is not applied to a line headed by its entry.
UniProt Q9H1Y0: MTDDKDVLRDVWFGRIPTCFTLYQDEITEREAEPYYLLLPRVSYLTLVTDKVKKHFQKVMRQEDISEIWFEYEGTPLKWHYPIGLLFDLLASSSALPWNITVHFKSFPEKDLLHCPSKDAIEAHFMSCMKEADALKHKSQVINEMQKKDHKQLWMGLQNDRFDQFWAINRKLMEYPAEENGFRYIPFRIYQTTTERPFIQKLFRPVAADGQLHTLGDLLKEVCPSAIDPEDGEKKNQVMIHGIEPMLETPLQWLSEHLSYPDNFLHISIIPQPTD

Legend:
APEX2-ATG5-WT = APEX2-ATG5-WT (UniProt Q9H1Y0); experiment: proximity labelling; APEX2 proximity biotinylation in FlpIn-HeLa cells, 500 µM biotin-phenol, with or without 2 mM LLOMe for 30 min, 1 min 1 mM H2O2; streptavidin beads, LC-MS/MS in DIA mode
APEX2-ATG5-K130R = APEX2-ATG5-K130R (UniProt Q9H1Y0); experiment: as above

In the case of VPS26A (from UniProt O75436 1-327), the binding (APEX2-ATG5-WT) is reported as “binds” and the binding (APEX2-ATG5-K130R) is reported as “binds”.

Results are given in words; binding and its absence hold for the method and conditions named. In cells and extracts the contact can be indirect. A yes stands for co-enrichment or nearness to the bait. Other partners may have been found.
